53 compounds from PubChem BioAssay AID1487 (National Center for Advancing Translational Sciences (NCATS), 2009) can be followed below.

A short description of this test: qHTS Assay for Modulators of Lamin A Splicing. Particulars: HeLa LMNA splicing GFP/RFP minigene ratio, 48 h. In short, it runs like this: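 Read-out is the ratio of GFP to DsRed2 object intensity, acquired by 488 nm laser-scanning cytometry on HeLa lamin A-EGFP minigene reporter cells. Compound incubation 48 hrs at 37 °C in Opti-MEM with 2% FBS; DMSO 0.5% final.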
On the technique in general: qHTS replaces the single test concentration by a dilution series.

Setting [1] is: measured here: GFP splicing reporter channel.
[2] abbreviates: measured here: RFP viability control channel.

Where “and” joins values, the source holds several entries; their conditions need not be identical. Equal values may be shown once. This is one part of the list. The main result of the screen is listed elsewhere. These columns were measured beside it and carry no call. Compounds called inactive in the main read-out are mostly missing here. The note in brackets gives the kind of curve behind each potency; many fits are weak.

Consider `COc1cccc(-c2nnc(NC(=O)c3ccc(Cl)s3)o2)c1`, for which the half-maximal activity concentration (AC50) under setting [1] was 35.5 µM [rising, single point].
With `CC(OC(=O)CC(NC(=O)c1ccccc1Cl)c1ccccc1)C(=O)Nc1cccc(Cl)c1Cl` (stereo not drawn), the AC50 is, setting by setting: under setting [1], 14.1 µM [rising, single point]; under setting [2], 10 µM [rising, partial curve].
On to `Cc1ccc(C)c(NS(=O)(=O)c2c(C)ccc3nsnc23)c1`, for which the AC50 under setting [1] is 5.01 µM [rising, partial curve].
Regarding `O=C(Nc1ccccc1Cl)C1CCN(Cc2cnn(-c3ccccc3)c2-n2cccc2)CC1`, the AC50 under setting [2] is 11.2 µM [rising, partial curve].
On to `COc1ccc2nc(NC(=O)C(NS(=O)(=O)c3cccs3)C(C)C)sc2c1` (stereo not drawn), for which the AC50 under setting [2] was 8.91 µM [rising, partial curve].
The same measure, in the same setting: the result for `Cn1c(COc2ccc(Cl)cc2)nnc1SCc1ncc(-c2ccccc2)o1` reads 12.6 µM [rising, partial curve].
The same measure, in the same setting: the figure for `CC(=O)N1CCN(S(=O)(=O)c2cccc(C(=O)Nc3ccc4c(c3)CCC4)c2)CC1` is 17.8 µM [rising, partial curve, poor fit]; for `CC(=O)N1CCCc2cc(S(=O)(=O)N3CCCC(C(=O)NCc4ccccc4)C3)ccc21` (stereo not drawn) it is 0.0282 µM [falling, full curve, poor fit].
With `C/C(=N\NC(=O)c1ccccc1O)C1C(=O)c2ccccc2C1=O`, the AC50 was 35.5 µM [falling, single point] under setting [1] and 35.5 µM [falling, single point] under setting [2].
Turning to `COc1ccc(C(=O)NNC(=O)CN2CCC(n3nnc4cc(F)ccc43)CC2)cc1`, the AC50 under setting [2] is 22.4 µM [rising, single point].
Consider `O=c1c(CCc2ccccc2)nc2cnc(Oc3ccccc3)nc2n1C1CC1`, for which the AC50 under setting [1] is 22.4 µM [falling, single point].
With `COc1cc(OC)c(NC(=O)CC(C)=O)cc1Cl`, the AC50 under setting [1] was 6.31 µM [falling, single point].
`COC(=O)c1ccc(NC(=O)N2CCC(CN3CCc4ccccc4C3)CC2)cc1`: the AC50 by setting is: under setting [1], 0.02 µM [falling, full curve, poor fit]; under setting [2], 0.02 µM [falling, full curve, poor fit].
Regarding `O=C(N/N=C/C(Br)=C/c1ccccc1)c1n[nH]c2c1CCC2`, the AC50 is 35.5 µM [falling, single point] under setting [1] and 0.501 µM [rising, full curve] under setting [2].
Consider `CC(Sc1nnc(Nc2ccccc2)s1)C(=O)NC1CCCc2ccccc21` (stereo not drawn), for which, under setting [2], the AC50 was 31.6 µM [rising, single point].
Take `CC(=O)Oc1ccc(C(c2ccc(OC(C)=O)cc2)c2ccccn2)cc1`: the AC50 under setting [1] was 794 nM [falling, partial curve, poor fit] and 12.6 nM [falling, full curve, poor fit] and 10 µM [rising, single point]; the AC50 under setting [2] was 14.1 µM [falling, single point] and 1.41 µM [falling, partial curve, poor fit] and 10 µM [rising, partial curve].
As for `CC(=O)c1c(C(C)=O)c(C)n(C(c2ccccc2)c2ccccc2)c1C`, the AC50 under setting [2] was 14.1 µM [falling, partial curve, poor fit].
In the case of `CC1=C(C(=O)Nc2ccc(C)cc2C)C(c2ccccc2F)n2nc(SCC(=O)c3ccc(C)cc3)nc2N1` (stereo not drawn), the AC50 under setting [2] was 17.8 µM [falling, partial curve, poor fit].
Same read-out and setting: the figure for `Oc1ccc(/C=N\Nc2cc(N3CCOCC3)nc(N3CCOCC3)n2)c(O)c1` is 20 µM [rising, partial curve].
For the compound `CSc1nc(C)cc(OCCNS(=O)(=O)c2cc(C)ccc2C)n1`, the AC50 by setting is: under setting [1], 15.8 µM [rising, single point]; under setting [2], 20 µM [rising, single point].
For `CCCCCCN=CC1=C(O)CC(C)(C)CC1=O`, the AC50 under setting [1] is 14.1 µM [rising, single point].
As for `CCC(=O)N(CCC(Cc1ccccc1)c1ccc2c(c1)OCO2)Cc1ccccc1F` (stereo not drawn), the AC50 under setting [2] is 17.8 µM [falling, partial curve, poor fit].
In the case of `COc1cccc2c(=O)c3cccc(N)c3[nH]c12`, the AC50 runs as follows: under setting [1], 12.6 µM [rising, partial curve, poor fit]; under setting [2], 15.8 µM [rising, partial curve, poor fit].
Consider `C=CCn1c(Cc2cccs2)nnc1SCC(=O)Nc1cc(OC)cc(OC)c1`, for which the AC50 under setting [1] was 5.01 µM [rising, partial curve, poor fit] and the AC50 under setting [2] is 17.8 µM [rising, partial curve].
Regarding `CCOc1ccccc1N(CC(=O)NCCSc1ccccc1)S(C)(=O)=O`, the AC50 is 35.5 µM [rising, partial curve, poor fit] under setting [1] and 5.01 µM [rising, single point] under setting [2].
Regarding `CCN(CC)CCNCc1cc(Cl)ccc1OCc1ccccc1F`, the AC50 is 12.6 µM [falling, single point] under setting [1] and 4.47 µM [falling, partial curve] under setting [2].
`S=C(NCc1cccs1)Nc1ccccc1Cl`: the AC50 was 20 µM [rising, single point] under setting [1] and 35.5 µM [rising, single point] under setting [2].
On to `c1ccc(-c2ncc3c(ccc4ccccc43)n2)cc1`, for which the AC50 under setting [2] is 20 µM [rising, partial curve, poor fit].
The same measure, in the same setting: the result for `Cc1oc(C)c2c(=O)ccc3c(c12)OC(N)=C(C#N)C3c1ccc(F)cc1` (stereo not drawn) reads 1.12 µM [falling, partial curve, poor fit].
With `O=C1/C(=C/c2c[nH]c3ccccc23)CCC/C1=C\c1c[nH]c2ccccc12`, the AC50 under setting [1] is 35.5 µM [falling, single point] and the AC50 under setting [2] is 35.5 µM [falling, single point].
As for `O=C(OCc1cncs1)c1cccs1`, under setting [1], the AC50 was 5.62 µM [falling, single point].
Take `c1coc(CN2CN=C(Nc3nc4ccccc4s3)NC2)c1`: the AC50 under setting [2] is 22.4 µM [rising, partial curve, poor fit].
Turning to `O=C(Nc1ccc(Br)cc1)c1cccc(N2C(=O)C3C4CCC(C4)C3C2=O)c1` (stereo not drawn), the AC50 by setting is: under setting [1], 5.01 µM [rising, partial curve]; under setting [2], 15.8 µM [rising, partial curve].
As for `Cc1ccc(C(=O)COc2cccc(NC(=O)c3ccco3)c2)cc1`, the AC50 under setting [2] was 12.6 µM [rising, single point].
Regarding `CN(C)/C=C/C(=O)c1ccc(Oc2ccccc2)cc1`, under setting [1], the AC50 was 0.00447 µM [falling, full curve, poor fit].
`COCCCNC(=S)N/N=C/c1cccc(OC)c1O`: the AC50 runs as follows: under setting [1], 0.0708 µM [falling, full curve]; under setting [2], 0.1 µM [falling, full curve].
For `CNS(=O)(=O)c1cccc(C(=O)OCC(=O)/C=C2/N(C)c3ccccc3C2(C)C)c1`, the AC50 was 4.47 µM [rising, partial curve] under setting [1] and 11.2 µM [rising, partial curve] under setting [2].
With `COc1ccc(CNC(=O)C(c2ccco2)N(Cc2ccccc2)C(=O)Cc2cccs2)cc1` (stereo not drawn), the AC50 was 35.5 µM [rising, single point] under setting [1] and 31.6 µM [rising, single point] under setting [2].
For `COc1cccc(CN(Cc2ccco2)S(=O)(=O)c2ccc(S(=O)(=O)NCc3ccccc3)cc2)c1OC`, the AC50 under setting [1] is 10 µM [rising, single point] and the AC50 under setting [2] is 11.2 µM [rising, partial curve].
Turning to `C/C(=N\Nc1ccc(Cl)c(Cl)c1)c1ccc(-n2ccnc2)cc1`, the AC50 runs as follows: under setting [1], 35.5 µM [rising, single point]; under setting [2], 35.5 µM [rising, partial curve].
In the case of `CCCCNC(=O)C(CC)Sc1nc2ccccc2c(=O)n1CCc1ccc(OC)c(OC)c1` (stereo not drawn), the AC50 under setting [2] is 22.4 µM [falling, partial curve, poor fit].
Same read-out and setting: the result for `COc1ccc(C(=O)CC2OC(=O)c3ccccc32)cc1OC` (stereo not drawn) reads 31.6 µM [rising, single point].
Turning to `Cc1ccc(O)c(C(=O)c2cc(C(=O)NCCc3ccccc3)c(=O)n(CCc3ccccc3)c2)c1`, the AC50 under setting [2] is 11.2 µM [rising, partial curve, poor fit].
Still for that read-out and setting: the figure for `CCOC(=O)C1=C(C)N(C)C(=S)NC1c1ccc(Cl)cc1` (stereo not drawn) is 35.5 µM [rising, single point]; for `CC(C)(C)c1cc(CCC(=O)NNC(=S)NC(=O)c2ccccc2)cc(C(C)(C)C)c1O` it is 4.47 µM [rising, full curve, poor fit].
Take `Clc1ccccc1-c1nc(NCc2cccs2)c2ccccc2n1`: the AC50 runs as follows: under setting [1], 17.8 µM [falling, partial curve, poor fit]; under setting [2], 31.6 µM [falling, single point].
Turning to `Cc1ccc(-n2c(C)cc(/C=C3\NC(=O)NC3=O)c2C)c(C)c1`, the AC50 under setting [2] was 35.5 µM [rising, single point].
`Cc1cc(N2CCCC2=O)cc(C)c1S(=O)(=O)NCCOc1ccccc1`: the AC50 by setting is: under setting [1], 35.5 µM [rising, single point]; under setting [2], 28.2 µM [rising, single point].
For `CCS(=O)(=O)c1ccc2oc(SCC(=O)NC(C)C3CC4CCC3C4)nc2c1` (stereo not drawn), the AC50 under setting [2] was 35.5 µM [rising, single point].
With `COc1cc(-c2cc(OC)c3c(C)oc(C)c3c(=O)c2)ccc1OC(=O)c1cccc(Cl)c1`, the AC50 under setting [1] is 20 µM [falling, partial curve, poor fit].
On the same count and under the same terms, the result for `Cc1ccccc1C(=O)Nc1cccc(NC(=O)Cn2cnc3c(=O)n(C)c(=O)n(C)c32)c1` reads 15.8 µM [falling, single point].
`Oc1c(Cl)cccc1C=Nc1cc(C(F)(F)F)ccc1N1CCCC1`: the concentration at half-maximal activity (AC50) under setting [2] is 10 µM [rising, single point].
In the case of `COc1ccc(N2CCN(c3csc4ccccc4c3=O)CC2)cc1`, the AC50 under setting [1] was 7.94 µM [rising, partial curve, poor fit].

As usually defined, the AC50 is the concentration at which the activity in the assay is half-maximal.
